Among the data in publication PMC6141507, “A plant Bro1 domain protein BRAF regulates multivesicular body biogenesis and membrane protein homeostasis” (Nature Communications, 2018) are binding values, retold here.

Results are given in words; binding and its absence hold for the method and conditions named. For part of these data: Binding calls can cover weak binding; strength is not graded here. For part of these data: Tags and fused reporters may be left off the sequences shown. For part of these data: Binding seen in cells or lysates may run through a third protein.

Test [1] has as its target T1, EYFP-Vps23A (Arabidopsis thaliana) (UniProt Q9LHG8).
T1 sequence: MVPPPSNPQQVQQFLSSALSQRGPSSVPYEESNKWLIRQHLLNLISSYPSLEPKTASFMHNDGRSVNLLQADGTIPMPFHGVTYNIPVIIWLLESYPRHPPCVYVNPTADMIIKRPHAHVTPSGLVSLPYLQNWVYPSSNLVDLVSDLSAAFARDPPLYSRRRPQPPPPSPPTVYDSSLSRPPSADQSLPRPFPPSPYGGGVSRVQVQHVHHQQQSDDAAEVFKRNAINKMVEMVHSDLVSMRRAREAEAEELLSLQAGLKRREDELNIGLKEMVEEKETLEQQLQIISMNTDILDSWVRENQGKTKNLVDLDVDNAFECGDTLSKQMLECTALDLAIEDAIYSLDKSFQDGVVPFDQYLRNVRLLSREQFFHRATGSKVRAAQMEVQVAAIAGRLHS
As to the kind of experiment: co-IP; Arabidopsis protoplasts transiently co-expressing the tagged proteins; extracts in IP buffer (10 mM Tris-HCl pH 7.4, 150 mM NaCl, 0.5 mM EDTA, 0.2% Nonidet P-40, 5% glycerol, 1 mM DTT) incubated with GFP-Trap agarose beads 4 h at 4 °C; immunoblot. (In general: In western blotting, separated proteins are transferred to a membrane and probed.)

In test [2] the target is T2, Cerulean-Vps23A (Arabidopsis thaliana) (UniProt Q9LHG8).
T2 sequence: T1 sequence
As to the kind of experiment: FRET or BRET; acceptor photobleaching FRET (FRET-AB) on colocalized punctae in Arabidopsis protoplasts expressing Cerulean and YFP fusions; Leica SP8, bleaching with the 514 nm laser. On the technique in general: BRET reads energy transfer from a luciferase to a nearby fluorophore.

In test [3] the target is T3, MBP-Vps23A (Arabidopsis thaliana) (UniProt Q9LHG8).
T3 sequence: T1 sequence
As to the kind of experiment: pull-down; amylose resin saturated with MBP or MBP fusion, incubated with 30 pmol His-Sumo protein in 200 µL pull-down buffer (50 mM Tris-HCl, 100 mM NaCl, 10% glycerol, pH 7.5) with 0.2% Triton X-100, 1 h at 4 °C; immunoblot of bead-retained material; both purified.

For test [4], the target named is T3, MBP-Vps23A (Arabidopsis thaliana). In words: pull-down; competition: in vitro binding assay on amylose resin bound with MBP-Vps23A (or the Vps23A CC domain as bait) with a constant amount of one His-SUMO protein (30 pmol BRAF) and 10, 30, 100 or 300 pmol of the competing His-SUMO protein; immunoblot, quantified; both purified.
Test [5] addresses T4, FREE1, yeast two-hybrid fusion (Arabidopsis thaliana) (UniProt Q9ASS2).
T4 sequence: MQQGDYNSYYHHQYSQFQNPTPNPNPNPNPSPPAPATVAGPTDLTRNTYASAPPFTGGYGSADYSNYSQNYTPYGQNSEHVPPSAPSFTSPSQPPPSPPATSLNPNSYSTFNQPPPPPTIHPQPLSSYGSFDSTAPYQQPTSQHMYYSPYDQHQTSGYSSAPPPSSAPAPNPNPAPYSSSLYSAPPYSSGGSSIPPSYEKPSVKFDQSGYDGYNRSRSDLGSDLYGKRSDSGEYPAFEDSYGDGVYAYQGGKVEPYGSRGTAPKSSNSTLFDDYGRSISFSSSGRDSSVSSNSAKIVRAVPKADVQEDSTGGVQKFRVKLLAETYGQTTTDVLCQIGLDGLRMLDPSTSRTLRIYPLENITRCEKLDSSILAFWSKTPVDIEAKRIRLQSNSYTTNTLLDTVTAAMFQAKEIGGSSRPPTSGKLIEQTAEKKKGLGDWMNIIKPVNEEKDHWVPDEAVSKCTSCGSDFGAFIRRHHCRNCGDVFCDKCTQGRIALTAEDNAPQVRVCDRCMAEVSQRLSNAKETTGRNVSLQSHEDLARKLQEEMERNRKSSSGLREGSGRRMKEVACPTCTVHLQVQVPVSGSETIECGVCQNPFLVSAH
In words: two-hybrid; binary assays, pGBKT7 and pGADT7 plasmids cotransformed into yeast AH109; selection on SD-His-Trp-Leu with 0-10 mM 3-amino-1,2,4-triazole, 2 days at 30 °C.

The target of test [6] is BRAF (BRo1-domain protein As FREE1 suppressor), yeast two-hybrid fusion (Arabidopsis thaliana). The description is as above.
Test [7] concerns the target BRAF-YFP (Arabidopsis thaliana). In words: co-IP; Arabidopsis protoplasts transiently co-expressing the tagged proteins; extracts in IP buffer (10 mM Tris-HCl pH 7.4, 150 mM NaCl, 0.5 mM EDTA, 0.2% Nonidet P-40, 5% glycerol, 1 mM DTT) incubated with GFP-Trap agarose beads 4 h at 4 °C; immunoblot.
Test [8] has as its target AT1G13310 (single Bro1-domain protein), yeast two-hybrid fusion (Arabidopsis thaliana). In words: two-hybrid; binary assays, pGBKT7 and pGADT7 plasmids cotransformed into yeast AH109; selection on SD-His-Trp-Leu with 0-10 mM 3-amino-1,2,4-triazole, 2 days at 30 °C.
Test [9] addresses AT1G17940 (single Bro1-domain protein), yeast two-hybrid fusion (Arabidopsis thaliana). The description is as above.

In the case of 3 × HA-BRAF (Arabidopsis thaliana), the binding entry in test [1] is “binds”.

As for “3 × HA-BRAF(A330V) (Arabidopsis thaliana)”, the binding entry in test [1] is “binds”.

For the molecule BRAF(C3A)-YFP (Arabidopsis thaliana), the binding entry in test [2] was “binds”.

Take BRAF-4 × HA (Arabidopsis thaliana): the binding entry in [1] is “binds”.

Regarding BRAF-YFP (Arabidopsis thaliana), the binding result in test [2] is given as “binds”.

As to His-Sumo-BRAF (Arabidopsis thaliana), the binding result in [3] and in [4] was “binds” each time.

For “His-Sumo-BRAF(A330V) (Arabidopsis thaliana)”, the binding entry in test [3] was “binds”.

Turning to “Vps23A CC domain, yeast two-hybrid fusion (Arabidopsis thaliana) (domain or fragment)”, the binding entry in [5] is recorded as “binds”.

Consider “Vps23A with the C-terminal steadiness box (SB) domain deleted, yeast two-hybrid fusion (Arabidopsis thaliana) (domain or fragment)”, for which the binding entry in [5] is listed as “binds”.

On to “Vps23A with the N-terminal UEV domain deleted, yeast two-hybrid fusion (Arabidopsis thaliana) (domain or fragment)”, for which, in test [5], the binding entry is listed as “binds”.

“Vps23A with the proline-rich region (PRR) deleted, yeast two-hybrid fusion (Arabidopsis thaliana) (domain or fragment)”: the binding result in test [5] is recorded as “binds”.

B1: AMSH1 (de-ubiquitinating enzyme), yeast two-hybrid fusion (enzyme, UniProt Q8VYB5 1-507)
chain: MGSSFETIDIATSARRIGVDNRISLKFYFRIADNILKQANIFRAEKNVIDLYVMLLRFSSLALETIPSHRDYRTSLKSNKEYLRMRLLDVLTELEKLKPVVQQRIDELYPKLKPRYNVQAHPANGSLGWSSAVKPSFNSYDHAKVRNPPGHNSGYMGSRGQQFLNAAPLEERFRKMSVNFRPNEETLSKHSILGPGGLSAQWQPPKYDTKVQYPSNIDFSPVVIPSFQQLVDSKPMITNGSNDEPEKPIVEPSVASNEKIQKNYTEELSSMISFEEPESVNENNLIRQPSPPPVLAEVQDLVPALCPEVREPECMIENSLPDESLRSESPLELHIATSMMDTFMRLAKSNTKKNLETCGILAGSLKNRKFYITALIIPKQESTSDSCQATNEEEIFEVQDKQSLFPLGWIHTHPTQSCFMSSIDVHTHYSYQIMLPEAVAIVMAPQDSSRNHGIFRLTTPGGMTVIRNCDRRGFHAHSSPEDGGPIYNTCKEVYMNPNLKFDVIDLR
With B1, in test [6], the binding entry is given as “no binding”.

B2: Myc-tagged Vps23A (protein, UniProt Q9LHG8 1-398)
chain: T1 sequence
For B2, in [7], the binding entry is on record as “binds”.

B3: Vps23A, yeast two-hybrid fusion (protein, UniProt Q9LHG8 1-398)
chain: T1 sequence
For the molecule B3, the binding entry in test [8] and in test [9] was “no binding” in each case.

B4: SNF7A, yeast two-hybrid fusion (protein, UniProt O82197 1-213)
chain: MFMNRLFGKPKQETSTLQTLDKLNETLEMLEKKENVLLKKATGEVEKAKEFSRAKNKRAAIQCLKRKRLYEQQVEQLGNFQLRIHDQMIMLEGAKATTETVDALRTGASAMKAMQKATNIDDVDKTMDEINEQTENMKQIQEALSAPFGANDFDEDELEAELDELEGAELEEQLLQPVPIHVPQGNKPARAPAQKQPTAEEDELAALQAEMAL
B4: the binding entry in [6] is reported as “no binding”.

B5: SNF7B, yeast two-hybrid fusion (protein, UniProt Q9SZE4 1-219)
chain: MMNRLFGKPKQEANALQTLDKLNETLEMLEKKEKVLLKKAGAEVEKAKEYSRAKNKRAAIQCLKRKRLYEGQVEQLGNFQLRIHDQMIMLEGAKATTETVDALRSGASAMKAMQKATNIDDVDKTMDEINEQTENMKQIQEALATPMGAAADFDEDELAAELDELESEELESQLLQPATTAPPLPSVPVPAGRQPARPVPQKRTAEEEELAALQAEMAL
Turning to B5, the binding result in test [6] is listed as “no binding”.
